Results are given in words; binding and its absence hold for the method and conditions named. A result given as binding can be weak or reduced; the word gives no strength. For some assays here: Where a sequence is shown, tags or fusion partners need not be part of it. For some assays here: Binding seen in cells or lysates may run through a third protein. One block for each molecule: values may come before it.
Assays:
[1] = target: T1, GST-tagged TOFU-1^82-113 (C. elegans) (UniProt O17608); test: pull-down; purified MBP-TOFU-6^eTUDOR constructs as bait (MBP pull-down) and GST-tagged TOFU-1 constructs as bait (GST pull-down); 20 mM Tris/HCl pH 7.5, 150 mM NaCl, 10% glycerol, 0.05% NP40, 1 mM DTT; SDS-PAGE with Coomassie staining; both purified
T1 sequence: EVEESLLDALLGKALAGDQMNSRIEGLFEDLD

The chains behind the UniProt entries cited, without tags or fusion partners. Where a name states a change or a piece, a line headed by the entry shows the natural chain unless it says otherwise.
UniProt Q09293: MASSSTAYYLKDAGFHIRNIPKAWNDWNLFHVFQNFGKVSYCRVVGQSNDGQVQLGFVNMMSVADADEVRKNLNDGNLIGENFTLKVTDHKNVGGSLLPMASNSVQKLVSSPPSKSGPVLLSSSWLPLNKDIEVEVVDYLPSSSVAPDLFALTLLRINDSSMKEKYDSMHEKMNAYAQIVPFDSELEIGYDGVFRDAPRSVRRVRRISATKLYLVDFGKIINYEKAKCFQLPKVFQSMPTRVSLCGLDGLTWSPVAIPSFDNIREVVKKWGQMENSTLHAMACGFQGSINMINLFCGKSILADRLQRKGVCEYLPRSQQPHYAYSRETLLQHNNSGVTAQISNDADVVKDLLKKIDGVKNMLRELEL

[2] = target: StrepII-tagged TOFU-2 SLFN domain (C. elegans); test: pull-down; constructs co-expressed in E. coli; StrepII-tagged bait precipitated from the lysate by Strep-Tactin XT beads, 2 h at 4 C, 250 mM NaCl pH 8.0; SDS-PAGE with Coomassie staining

binding [1]: binds
Molecule: mutant MBP-TOFU-6^eTUDOR domain (from UniProt Q09293) (domain or fragment)

binding [2]: binds
B1: SLFL-3 (co-expressed in E. coli) (protein, UniProt O61766 1-383)
chain: MDSGDFSPMQSNFSLGFMSFEDIPEDARTTEMIDKIVFEEDKEYDHTQDSFRYGRVTTGVSYNLVTGKIPKTVFEQVKAKDDENDNVEFEMEHLEDKETAHKTQTFDELYESQMPKYFDYQSNFSDVNGIWTLLFDQNHYEKMSTFELQAAICAALNSKHFMMICVGIDAFNAVTGVEMSAKDRVVFRMALTRAVAGEFQPPLVKVAPKQLTGVSPMKRDISEVTSSIDVLFVPVIGVTDEVENNRFLIVVRVKEISDKVYQISSGRIYNEQEGRVVEMSDMNEAFHKLIVEKSISDIQTRRGSMFMLEPEPFLEDSAVIFTESNEIPSENHEISRVHVKNCTERSLSQSLLNLLDIQNIGWIFFGTALSFCIYNNAIKPLVK

Reference: publication PMC10567574, “piRNA processing by a trimeric Schlafen-domain nuclease” (Nature, 2023)
